# Source: article PMC12040169 (PLOS Biology, 2025)
# The list shows a part of the results.
# Tested on: T1, CTL2-GFP (C. trachomatis L2/434/Bu, GFP-expressing)
# T1 construct: L2/434/Bu, GFP-expressing
# Set-up: species or system HeLa; Intracellular C. trachomatis growth in HeLa cells, bulk GFP fluorescence relative to DMSO
# Settings: bulk GFP, single well; 28.5 h, 10 µM; inhibitor
row,Compound,% of control remaining [%]
1,CC(C)(C)OC(=O)NCc1ccc(-c2nnc(CC(=O)O)o2)cc1 [CBK169899D],116.644
2,Cc1ccc(C2SCC(C(=O)O)N2C(=O)c2cccc(Cl)c2)cc1 (centres unmarked) [CBK286931],156.465
3,COc1ccc(CNc2cncc(-c3ccc(C(C)C)cc3)n2)cc1 [CBK065514],97.0073
4,CC(=O)NCCOc1nccnc1OCc1ccc(Cl)c(Cl)c1 [CBK161582],124.063
5,NC(=O)c1ccc(-c2cncc(N3CCN(CCO)CC3)n2)cc1 [CBK065392],125.307
6,CCN1CC2(CCNCC2)c2ccccc21 [CBK116520],109.702
7,O=C(NCCn1cccn1)c1ncoc1-c1ccc(F)cc1 [CBK282355],149.764
8,CN(C)CC(O)c1cc2n(n1)CCCN(CC(=O)NCc1cccs1)C2 (centres unmarked) [CBK306738],130.755
9,O=C1NC(=O)C(CC(=O)N2CCC3(CC2)CC(=O)c2cc(Cl)ccc2O3)N1 (centres unmarked) [CBK156485],99.1794
10,CNC(=O)Nc1ccccc1NC(=O)NC [CBK261401],114.663
11,CCc1nn(CC(=O)N(C)C)c(=O)c2cc3oc(C)cc3n12 [CBK283576],111.595
12,Cc1cc(=O)n2c(-c3ccc(NS(=O)(=O)c4cccnc4)cc3)csc2n1 [CBK287837],111.987
13,Cn1cc(-c2nc(C3COCCN3Cc3ccc(F)cc3)no2)cn1 (centres unmarked) [CBK305391],122.033
14,O=C(NCCCN1CCOCC1)c1ccc(/C=N/O)nc1 [CBK264468],130.899
15,Cc1ccc(C(C)C)c(OCC(=O)Nc2ccc(F)c([N+](=O)[O-])c2)c1 [CBK263771],61.9874
16,COc1ccc(-n2ncc(-c3ccc(C(F)(F)F)cc3)n2)cc1 [CBK112688],125.169
17,O=C(NCCc1ccccc1)Nc1cc2cccnc2c(Br)n1 [CBK063283],64.8619
18,Cc1nc(CCCn2cnc3cnccc3c2=O)sc1C [CBK306610],95.4564
19,CN(C)CC(C)(C)CNC1CCN(C)CC1 [CBK261926],113.514
20,Fc1ccc(OCCNCCC2NCCc3c2[nH]c2ccccc32)cc1 (centres unmarked) [CBK066970],100
21,O=S(=O)(c1cccc2nsnc12)N1CCCN(Cc2ccsc2)CC1 [CBK038570],95.9135
22,N#CC1=C(SCc2ccccc2)SC(c2ccc(O)c(O)c2)NC1=O (centres unmarked) [CBK293972],121.596
23,CC(Oc1ccc(Br)cc1Cl)C(=O)NCCCN1CCCC1=O (centres unmarked) [CBK268138],79.7573

# An excerpt of these results, as tab-separated lines.
row	Compound	% of control remaining [%]
18	Cc1nc(CCCn2cnc3cnccc3c2=O)sc1C [CBK306610]	95.4564
19	CN(C)CC(C)(C)CNC1CCN(C)CC1 [CBK261926]	113.514
20	Fc1ccc(OCCNCCC2NCCc3c2[nH]c2ccccc32)cc1 (centres unmarked) [CBK066970]	100
21	O=S(=O)(c1cccc2nsnc12)N1CCCN(Cc2ccsc2)CC1 [CBK038570]	95.9135
